Values from PubChem BioAssay AID504791 (Drosophila RNAi Screening Center, 2011)
In all, the deposit lists about 23,000 reagents; shown is an unselected part of those with a known target gene and a result. Over the whole deposit, 199 (0.86%) were called active. 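Plate-scaled ratios behind the calls are not deposited; printed light signals are raw; many rows marked increased or decreased are still called inactive.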 Unmarked entries are inactive. Names joined by + are all predicted targets of the reagent. The record does not give: the direction of the score.

Purpose: 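Genes of the fly required for silencing by miRNA, siRNA or endo-siRNA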 (primary screen)
Cells: Drosophila S2-derived reporter cells
Reagents: long dsRNA against Drosophila genes, about 150-250 ng dsRNA per well (siRNA assay); about 80-120 ng (miRNA assay)
Duration: about 5 days (siRNA assay); about 4 days (miRNA assay)
Treatment: copper sulfate induction of reporters: 25 µM (siRNA assay); 200 mM stated (miRNA assay), 1-2 days before reading
Detection: 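Per-well ratio of Renilla over firefly light, expressed relative to that plate's average ratio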
Call rule: 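First-pass picks had plate-scaled ratios over 1.5 for the siRNA assay, over 1.6 for the miRNA assay, or under 0.6; two distinct dsRNAs had to score alike on retest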

gene knocked down | PubChem SID | stable siRNA reporter change | stable assay Renilla, run 1 (luminescence) | stable assay firefly, run 1 (luminescence)
TM9SF3 (Transmembrane 9 superfamily protein member 3) | SID104189539 | – | 5427 | 3.39e5
RpS27A (Ribosomal protein S27A) | SID104183213 | – | 7923 | 3.86e5
mam (mastermind) | SID104185260 | – | 5218 | 3.24e5
mam (mastermind) | SID104187440 | – | 3844 | 1.49e5
mam (mastermind) | SID104202328 | – | 4999 | 4.76e5
S6kII (Ribosomal protein S6 kinase II) | SID104200437 | – | 7618 | 4.70e5
CG33229 | SID104187655 | – | 8251 | 5.54e5
CG13068 | SID104189743 | – | 7123 | 3.81e5
S6KL (S6 Kinase Like) | SID104199141 | – | 3267 | 4.16e5
S6KL (S6 Kinase Like) | SID104201288 | – | 8474 | 5.15e5
S6KL (S6 Kinase Like) | SID104202504 | – | 7619 | 4.99e5
CG2656 | SID104192376 | – | 7211 | 3.50e5
crp (cropped) | SID104183307 | – | 7211 | 3.67e5
Oseg4 (Outer segment 4) | SID104188340 | – | 12034 | 4.72e5
CG13921 | SID104188182 | – | 2820 | 3.09e5
sima (similar) | SID104196847 | reporter ratio raised past the hit cutoff | 5647 | 2.14e5
sima (similar) | SID104202560 | – | 2959 | 2.02e5
Rif1 (Rap1 interacting factor 1) | SID104185385 | – | 7820 | 4.65e5
Dbx | SID104188062 | – | 4296 | 2.41e5
Dbx | SID104188063 | – | 4899 | 3.33e5
Dbx | SID104188186 | – | 5083 | 3.79e5
CG2865 | SID104198319 | – | 6430 | 3.35e5
CG2865 | SID104198320 | – | 3407 | 3.46e5
Kdm3 (Lysine demethylase 3) | SID104196185 | – | 6075 | 3.10e5
CG9331 | SID104182998 | – | 26999 | 6.72e5
CG31775 + CG42586 | SID104201805 | – | 10525 | 7.37e5
CG31775 + CG42586 | SID104202623 | – | 4903 | 3.45e5
Surf4 (Surfeit 4) | SID104196667 | – | 7227 | 2.81e5
CG8172 | SID104186881 | – | 6666 | 4.64e5
CG8172 | SID104201674 | – | 10751 | 6.00e5
ND-24 (NADH dehydrogenase (ubiquinone) 24 kDa subunit) | SID104199752 | – | 8019 | 5.03e5
CG17633 | SID104182423 | – | 6926 | 3.68e5
Sans (Scaffold protein containing ankyrin repeats and SAM domain) | SID104186149 | reporter ratio lowered past the hit cutoff | 4443 | 4.94e5
CG8888 | SID104187086 | – | 9481 | 6.32e5
CG8888 | SID104187087 | – | 6724 | 4.70e5
CG5011 | SID104179831 | – | 4035 | 3.44e5
CG5011 | SID104180466 | – | 45628 | 1.53e5
CG34193 | SID104185457 | – | 6239 | 3.82e5
Pburs (Partner of Bursicon) | SID104182275 | – | 7462 | 3.46e5
EDTP (Egg-derived tyrosine phosphatase) | SID104187201 | – | 7724 | 3.93e5
kek5 (kekkon 5) | SID104199230 | – | 4835 | 2.56e5
spz4 (spatzle 4) | SID104182202 | – | 5884 | 3.06e5
CG6345 | SID104195816 | – | 6542 | 4.35e5
Ir67c (Ionotropic receptor 67c) | SID104201667 | – | 10153 | 6.51e5
CG15484 | SID104182286 | – | 4502 | 3.68e5
CG15484 | SID104202195 | – | 5303 | 3.90e5
CG12723 | SID104199291 | – | 2487 | 2.78e5
CR32011 + CR32010 + PlexB + 1 more | SID104201349 | – | 10048 | 5.79e5
Pgant35A (Polypeptide N-acetylgalactosaminyltransferase 35A) | SID104183349 | – | 5036 | 3.80e5
RpS27 (Ribosomal protein S27) | SID104194036 | – | 6422 | 2.92e5
so (sine oculis) | SID104187485 | – | 26742 | 2.13e6
so (sine oculis) | SID104202453 | – | 3527 | 2.44e5
CG8547 | SID104187003 | – | 8220 | 3.24e5
CG18745 | SID104195174 | – | 7498 | 4.16e5
CG9609 | SID104199991 | reporter ratio lowered past the hit cutoff | 7616 | 7.41e5
Irp-1A (Iron regulatory protein 1A) | SID104196511 | – | 3940 | 3.65e5
Trm1 (tRNA methyltransferase 1) | SID104182743 | – | 26901 | 6.18e5

Already shown: entries from further up.
gene knocked down | PubChem SID | stable siRNA reporter change | stable assay Renilla, run 1 (luminescence) | stable assay firefly, run 1 (luminescence)
CG8172 | SID104186881 | – | 6666 | 4.64e5
CG8172 | SID104201674 | – | 10751 | 6.00e5
ND-24 (NADH dehydrogenase (ubiquinone) 24 kDa subunit) | SID104199752 | – | 8019 | 5.03e5
